PubChem BioAssay AID1259254, NCATS | 2017
Shown is one part, drawn at random, of about 59,000 reagents. In the full data, about 1,550 (2.6%) are marked active. 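G2 share is only a proxy for re-replication; each gene was hit by three separate siRNAs, and active genes were retested.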 The numbers tell different reagents against one gene apart. Not all columns of the deposit are shown. The record does not give: the amount of reagent.

Screen: 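Gene knock-downs that lead to re-replication, shown by excess G2 DNA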 (primary screen)
System: human HCT116 colorectal cancer cells
Reagent: single siRNA against human genes
Duration: 3 days
Measured: 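Imaged Hoechst DNA stain sorts each cell into a cycle phase by DNA amount; per plate, G2 fraction set to 0% for non-targeting and 100% for GMNN siRNA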
Direction: G2 robust z-score and G2 cells, % of GMNN control: higher = more G2 cells, more excess DNA replication
Active means: 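Active siRNAs have a G2 robust z of 5 or more median absolute deviations over the median, which in these data means about 38% or higher of GMNN control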

What is on record for TMEM106C #1?
G2 robust z-score: 0.355; G2 cells, % of GMNN control: 5.47; call: inactive

For TMEM106C #2, what does the deposit list?
G2 robust z-score: 1.27; G2 cells, % of GMNN control: 11.9; call: inactive

How did the screen score TMEM106C #3?
G2 robust z-score: 2.44; G2 cells, % of GMNN control: 20.1; call: inactive

How did the screen score DDX10 #1?
G2 robust z-score: -0.891; G2 cells, % of GMNN control: -3.3; call: inactive

What is on record for DDX10 #2?
G2 robust z-score: 1.61; G2 cells, % of GMNN control: 14.3; call: inactive

With DDX10 #3, what does the deposit list?
G2 robust z-score: -0.75; G2 cells, % of GMNN control: -2.31; call: inactive

With GABARAP #1, what was measured?
G2 robust z-score: 0.0449; G2 cells, % of GMNN control: 3.28; call: inactive

With GABARAP #2, what was measured?
G2 robust z-score: -1.45; G2 cells, % of GMNN control: -7.21; call: inactive

How did the screen score GABARAP #3?
G2 robust z-score: -0.581; G2 cells, % of GMNN control: -1.12; call: inactive

As entered above.
Value of GABARAP #3 in “G2 robust z-score”: -0.581
Result of TMEM106C #3 in “G2 cells, % of GMNN control”: 20.1

The listing continues:
What did the screen give for ZDHHC8BP #1?
G2 robust z-score: 1.06; G2 cells, % of GMNN control: 10.4; call: inactive

With ZDHHC8BP #2, what does the deposit list?
G2 robust z-score: -0.233; G2 cells, % of GMNN control: 1.33; call: inactive

For ZDHHC8BP #3, what was measured?
G2 robust z-score: -0.891; G2 cells, % of GMNN control: -3.3; call: inactive

How did the screen score FXYD7 #1?
G2 robust z-score: 1.84; G2 cells, % of GMNN control: 15.9; call: inactive

Which result is listed for FXYD7 #2?
G2 robust z-score: -0.413; G2 cells, % of GMNN control: 0.0589; call: inactive

With FXYD7 #3, what was measured?
G2 robust z-score: -0.732; G2 cells, % of GMNN control: -2.18; call: inactive

Which result is listed for LMAN1L #1?
G2 robust z-score: 0.226; G2 cells, % of GMNN control: 4.56; call: inactive

What is on record for LMAN1L #2?
G2 robust z-score: -0.432; G2 cells, % of GMNN control: -0.0703; call: inactive

With LMAN1L #3, what was measured?
G2 robust z-score: -0.861; G2 cells, % of GMNN control: -3.09; call: inactive

What is on record for C22orf23 #1?
G2 robust z-score: -0.398; G2 cells, % of GMNN control: 0.167; call: inactive

Which result is listed for C22orf23 #2?
G2 robust z-score: -0.787; G2 cells, % of GMNN control: -2.57; call: inactive

What is on record for C22orf23 #3?
G2 robust z-score: 1.3; G2 cells, % of GMNN control: 12.1; call: inactive

What did the screen give for ZNF16 #1?
G2 robust z-score: -0.438; G2 cells, % of GMNN control: -0.113; call: inactive

For ZNF16 #2, how do the results read?
G2 robust z-score: 0.518; G2 cells, % of GMNN control: 6.61; call: inactive

What did the screen give for ZNF16 #3?
G2 robust z-score: 1.35; G2 cells, % of GMNN control: 12.5; call: inactive
